No constants are given. Whether binding was seen depends on the method and setting. In cells and extracts the contact can be indirect. These calls come from enrichment with a bait or labelling near it, and not all partners need be listed. Tags and fused reporters may be left off the sequences shown.
B1: DnaJ homolog subfamily C member 7 (protein, UniProt Q99615 1-494)
chain: MAAAAECDVVMAATEPELLDDQEAKREAETFKEQGNAYYAKKDYNEAYNYYTKAIDMCPKNASYYGNRAATLMMLGRFREALGDAQQSVRLDDSFVRGHLREGKCHLSLGNAMAACRSFQRALELDHKNAQAQQEFKNANAVMEYEKIAETDFEKRDFRKVVFCMDRALEFAPACHRFKILKAECLAMLGRYPEAQSVASDILRMDSTNADALYVRGLCLYYEDCIEKAVQFFVQALRMAPDHEKACIACRNAKALKAKKEDGNKAFKEGNYKLAYELYTEALGIDPNNIKTNAKLYCNRGTVNSKLRKLDDAIEDCTNAVKLDDTYIKAYLRRAQCYMDTEQYEEAVRDYEKVYQTEKTKEHKQLLKNAQLELKKSKRKDYYKILGVDKNASEDEIKKAYRKRALMHHPDRHSGASAEVQKEEEKKFKEVGEAFTILSDPKKKTRYDSGQDLDEEGMNMGDFDPNNIFKAFFGGPGGFSFEASGPGNFFFQFG
B2: Immunoglobulin-binding protein 1 (protein, UniProt P78318 1-339)
chain: MAAEDELQLPRLPELFETGRQLLDEVEVATEPAGSRIVQEKVFKGLDLLEKAAEMLSQLDLFSRNEDLEEIASTDLKYLLVPAFQGALTMKQVNPSKRLDHLQRAREHFINYLTQCHCYHVAEFELPKTMNNSAENHTANSSMAYPSLVAMASQRQAKIQRYKQKKELEHRLSAMKSAVESGQADDERVREYYLLHLQRWIDISLEEIESIDQEIKILRERDSSREASTSNSSRQERPPVKPFILTRNMAQAKVFGAGYPSLPTMTVSDWYEQHRKYGALPDQGIAKAAPEEFRKAAQQQEEQEEKEEEDDEQTLHRAREWDDWKDTHPRGYGNRQNMG
B3: Cancer/testis antigen family 45 member A5 (protein, UniProt P0DMU8 1-189)
chain: MTDKTEKVAVDPETVFKRPRECDSPSYQKRQRMALLARKQGAGDSLIAGSAMSKEKKLMTGHAIPPSQLDSQIDDFTGFSKDGMMQKPGSNAPVGGNVTSSFSGDDLECRETASSPKSQREINADIKRKLVKELRCVGQKYEKIFEMLEGVQGPTAVRKRFFESIIKEAARCMRRDFVKHLKKKLKRMI
B4: Serine/threonine-protein phosphatase 6 regulatory subunit 3 (protein, UniProt Q5H9R7 1-873)
chain: MFWKFDLHSSSHIDTLLEREDVTLKELMDEEDVLQECKAQNRKLIEFLLKAECLEDLVSFIIEEPPQDMDEKIRYKYPNISCELLTSDVSQMNDRLGEDESLLMKLYSFLLNDSPLNPLLASFFSKVLSILISRKPEQIVDFLKKKHDFVDLIIKHIGTSAIMDLLLRLLTCIEPPQPRQDVLNWLNEEKIIQRLVEIVHPSQEEDRHSNASQSLCEIVRLSRDQMLQIQNSTEPDPLLATLEKQEIIEQLLSNIFHKEKNESAIVSAIQILLTLLETRRPTFEGHIEICPPGMSHSACSVNKSVLEAIRGRLGSFHELLLEPPKKSVMKTTWGVLDPPVGNTRLNVIRLISSLLQTNTSSINGDLMELNSIGVILNMFFKYTWNNFLHTQVEICIALILASPFENTENATITDQDSTGDNLLLKHLFQKCQLIERILEAWEMNEKKQAEGGRRHGYMGHLTRIANCIVHSTDKGPNSALVQQLIKDLPDEVRERWETFCTSSLGETNKRNTVDLVTTCHIHSSSDDEIDFKETGFSQDSSLQQAFSDYQMQQMTSNFIDQFGFNDEKFADQDDIGNVSFDRVSDINFTLNTNESGNIALFEACCKERIQQFDDGGSDEEDIWEEKHIAFTPESQRRSSSGSTDSEESTDSEEEDGAKQDLFEPSSANTEDKMEVDLSEPPNWSANFDVPMETTHGAPLDSVGSDVWSTEEPMPTKETGWASFSEFTSSLSTKDSLRSNSPVEMETSTEPMDPLTPSAAALAVQPEAAGSVAMEASSDGEEDAESTDKVTETVMNGGMKETLSLTVDAKTETAVFKSEEGKLSTSQDAACKDAEECPETAEAKCAAPRPPSSSPEQRTGQPSAPGDTSVNGPV
B5: Pyridoxal-dependent decarboxylase domain-containing protein 1 (protein, UniProt Q6P996 1-788)
chain: MDASLEKIADPTLAEMGKNLKEAVKMLEDSQRRTEEENGKKLISGDIPGPLQGSGQDMVSILQLVQNLMHGDEDEEPQSPRIQNIGEQGHMALLGHSLGAYISTLDKEKLRKLTTRILSDTTLWLCRIFRYENGCAYFHEEEREGLAKICRLAIHSRYEDFVVDGFNVLYNKKPVIYLSAAARPGLGQYLCNQLGLPFPCLCRVPCNTVFGSQHQMDVAFLEKLIKDDIERGRLPLLLVANAGTAAVGHTDKIGRLKELCEQYGIWLHVEGVNLATLALGYVSSSVLAAAKCDSMTMTPGPWLGLPAVPAVTLYKHDDPALTLVAGLTSNKPTDKLRALPLWLSLQYLGLDGFVERIKHACQLSQRLQESLKKVNYIKILVEDELSSPVVVFRFFQELPGSDPVFKAVPVPNMTPSGVGRERHSCDALNRWLGEQLKQLVPASGLTVMDLEAEGTCLRFSPLMTAAVLGTRGEDVDQLVACIESKLPVLCCTLQLREEFKQEVEATAGLLYVDDPNWSGIGVVRYEHANDDKSSLKSDPEGENIHAGLLKKLNELESDLTFKIGPEYKSMKSCLYVGMASDNVDAAELVETIAATAREIEENSRLLENMTEVVRKGIQEAQVELQKASEERLLEEGVLRQIPVVGSVLNWFSPVQALQKGRTFNLTAGSLESTEPIYVYKAQGAGVTLPPTPSGSRTKQRLPGQKPFKRSLRGSDALSETSSVSHIEDLEKVERLSSGPEQITLEASSTEGHPGAPSPQHTDQTEAFQKGVPHPEDDHSQVEGPESLR
B6: Isoform 2 of Cdc42 effector protein 1 (protein, UniProt Q00587-2 1-384)
chain: MPGPQGGRGAATMSLGKLSPVGWVSSSQGKRRLTADMISHPLGDFRHTMHVGRGGDVFGDTSFLSNHGGSSGSTHRSPRSFLAKKLQLVRRVGAPPRRMASPPAPSPAPPAISPIIKNAISLPQLNQAAYDSLVVGKLSFDSSPTSSTDGHSSYGLDSGFCTISRLPRSEKPHDRDRDGSFPSEPGLRRSDSLLSFRLDLDLGPSLLSELLGVMSLPEAPAAETPAPAANPPAPTANPTGPAANPPATTANPPAPAATPTGPAANPPAPAASSTPHGHCPNGVTAGLGPVAEVKSSPVGGGPRGPAGPALGRHWGAGWDGGHHYPEMDARQERVEVLPQARASWESLDEEWRAPQAGSRTPVPSTVQANTFEFADAEEDDEVKV
B7: Methionyl-tRNA synthetase (protein, UniProt P56192 1-900)
chain: MRLFVSDGVPGCLPVLAAAGRARGRAEVLISTVGPEDCVVPFLTRPKVPVLQLDSGNYLFSTSAICRYFFLLSGWEQDDLTNQWLEWEATELQPALSAALYYLVVQGKKGEDVLGSVRRALTHIDHSLSRQNCPFLAGETESLADIVLWGALYPLLQDPAYLPEELSALHSWFQTLSTQEPCQRAAETVLKQQGVLALRPYLQKQPQPSPAEGRAVTNEPEEEELATLSEEEIAMAVTAWEKGLESLPPLRPQQNPVLPVAGERNVLITSALPYVNNVPHLGNIIGCVLSADVFARYSRLRQWNTLYLCGTDEYGTATETKALEEGLTPQEICDKYHIIHADIYRWFNISFDIFGRTTTPQQTKITQDIFQQLLKRGFVLQDTVEQLRCEHCARFLADRFVEGVCPFCGYEEARGDQCDKCGKLINAVELKKPQCKVCRSCPVVQSSQHLFLDLPKLEKRLEEWLGRTLPGSDWTPNAQFITRSWLRDGLKPRCITRDLKWGTPVPLEGFEDKVFYVWFDATIGYLSITANYTDQWERWWKNPEQVDLYQFMAKDNVPFHSLVFPCSALGAEDNYTLVSHLIATEYLNYEDGKFSKSRGVGVFGDMAQDTGIPADIWRFYLLYIRPEGQDSAFSWTDLLLKNNSELLNNLGNFINRAGMFVSKFFGGYVPEMVLTPDDQRLLAHVTLELQHYHQLLEKVRIRDALRSILTISRHGNQYIQVNEPWKRIKGSEADRQRAGTVTGLAVNIAALLSVMLQPYMPTVSATIQAQLQLPPPACSILLTNFLCTLPAGHQIGTVSPLFQKLENDQIESLRQRFGGGQAKTSPKPAVVETVTTAKPQQIQALMDEVTKQGNIVRELKAQKADKNEVAAEVAKLLDLKKQLAVAEGKPPEAPKGKKKK
B8: Isoform 2 of Caseinolytic peptidase B protein homolog (protein, UniProt Q9H078-2 37-677)
chain: VTTGSLGEPQWLRVATGGRPGTSPALFSGRGAATGGRQGGRFDTKCLAAATWGRLPGPEETLPGQDSWNGVPSRAGLGMCALAAALVVHCYSKSPSNKDAALLEAARANNMQEVSRLLSEGADVNAKHRLGWTALMVAAINRNNSVVQVLLAAGADPNLGDDFSSVYKTAKEQGIHSLEVLITREDDFNNRLNNRASFKGCTALHYAVLADDYRTVKELLDGGANPLQRNEMGHTPLDYAREGEVMKLLRTSEAKYQEKQRKREAEERRRFPLEQRLKEHIIGQESAIATVGAAIRRKENGWYDEEHPLVFLFLGSSGIGKTELAKQTAKYMHKDAKKGFIRLDMSEFQERHEVAKFIGSPPGYVGHEEGGQLTKKLKQCPNAVVLFDEVDKAHPDVLTIMLQLFDEGRLTDGKGKTIDCKDAIFIMTSNVASDEIAQHALQLRQEALEMSRNRIAENLGDVQISDKITISKNFKENVIRPILKAHFRRDEFLGRINEIVYFLPFCHSELIQLVNKELNFWAKRAKQRHNITLLWDREVADVLVDGYNVHYGARSIKHEVERRVVNQLAAAYEQDLLPGGCTLRITVEDSDKQLLKSPELPSPQAEKRLPKLRLEIIDKDSKTRRLDIRAPLHPEKVCNTI
B9: Reticulocalbin-1 (protein, UniProt Q15293 30-331)
chain: KPTVRKERVVRPDSELGERPPEDNQSFQYDHEAFLGKEDSKTFDQLTPDESKERLGKIVDRIDNDGDGFVTTEELKTWIKRVQKRYIFDNVAKVWKDYDRDKDDKISWEEYKQATYGYYLGNPAEFHDSSDHHTFKKMLPRDERRFKAADLNGDLTATREEFTAFLHPEEFEHMKEIVVLETLEDIDKNGDGFVDQDEYIADMFSHEENGPEPDWVLSEREQFNEFRDLNKDGKLDKDEIRHWILPQDYDHAQAEARHLVYESDKNKDEKLTKEEILENWNMFVGSQATNYGEDLTKNHDEL
B10: Cysteine and glycine-rich protein 2 (protein, UniProt Q16527 1-193)
chain: MPVWGGGNKCGACGRTVYHAEEVQCDGRSFHRCCFLCMVCRKNLDSTTVAIHDEEIYCKSCYGKKYGPKGYGYGQGAGTLNMDRGERLGIKPESVQPHRPTTNPNTSKFAQKYGGAEKCSRCGDSVYAAEKIIGAGKPWHKNCFRCAKCGKSLESTTLTEKEGEIYCKGCYAKNFGPKGFGYGQGAGALVHAQ

What follows are binders tested against T1, full length TRIM14 ORF tagged at the C-terminus with 3xFLAG (human) (UniProt Q14142) (assay: affinity purification with mass spectrometry; anti-FLAG affinity gel IP of C-terminally 3xFLAG-tagged TRIM14 from HEK293T lysate 48 h after transfection, overnight at 4 °C; eluted with 0.15% TFA, trypsin, LC-MS/MS; proteins also found with empty FLAG vector excluded; hits seen in at least 2 of 3 biological experiments).
T1 sequence: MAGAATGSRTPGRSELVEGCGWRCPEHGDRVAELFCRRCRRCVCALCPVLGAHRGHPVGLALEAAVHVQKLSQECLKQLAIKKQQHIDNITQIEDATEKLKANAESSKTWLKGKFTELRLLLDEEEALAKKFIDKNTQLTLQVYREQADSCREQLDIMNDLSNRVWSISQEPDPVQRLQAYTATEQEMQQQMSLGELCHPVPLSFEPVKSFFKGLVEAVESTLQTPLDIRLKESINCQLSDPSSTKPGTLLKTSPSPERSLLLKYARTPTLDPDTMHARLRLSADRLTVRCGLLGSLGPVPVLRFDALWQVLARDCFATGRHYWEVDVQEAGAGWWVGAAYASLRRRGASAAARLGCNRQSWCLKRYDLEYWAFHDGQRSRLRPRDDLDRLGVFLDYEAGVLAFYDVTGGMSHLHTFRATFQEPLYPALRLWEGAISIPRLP
B1 was tested, and the binding was “binds”. For B2, the binding was “binds”. In the case of B3, the binding is reported as “binds”. With B4 the binding was “binds”. In the case of B5, the binding is reported as “binds”. In the case of B6, the binding is reported as “binds”. For B7, the binding was “binds”. B8 was tested, and the binding was “binds”. For B9, the binding was “binds”. With B10 the binding was “binds”.

From paper PMC5216374
